PubChem BioAssay AID1347076 (National Center for Advancing Translational Sciences (NCATS), 2019)
Out of some 400,000 compounds screened, about 13,000 (3.2%) were called active. Inconclusive means that the source gave no clear call. Such entries were picked first, then a sample of the others. The call rests on the fitted dose curve; in most records, active means well fitted cell-killing curve with a large enough effect; inconclusive means small, poorly fitted or top-dose-only effect, or effect the other way; inactive means flat fitted curve, though single readings scatter. Potencies beside an inconclusive call are fits to weak or partial responses and may not hold up.

Assay: qHTS assay for MDR1-selective chemotherapeutics: Primary screen using the drug-selected MDR subline cells KB-V1; further: nearly all actives have a fitted effect of over 60% in size
Settings: KB-V1 MDR cells viability, CellTiter-Glo, 72 h; activity change, negative = cytotoxicity: at 46.1 µM (top of the series)
In short: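 KB-V1 MDR subline cells in DMEM (phenol-red free, 10% FBS) exposed to compounds in qHTS concentration series for 72 h at 37 degrees C. Viability read by CellTiter-Glo luminescence; concentration-effect curves fitted after normalization and correction.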
On the % scale 0 is the no-effect control and ±100 the full control effect; potency means the concentration at half of the fitted maximal effect.

SMILES	Potency	activity change, negative = cytotoxicity
O=C(Nc1ccc(Cl)c(C(F)(F)F)c1)c1ccncc1	inconclusive: 0.0366 µM [rising, full curve]	
COc1ccc(CNC(=O)C(CC(C)C)NS(=O)(=O)c2ccc3c(c2)CCN3C(C)=O)cc1 (centres undefined)	inconclusive: 5.8 µM [rising, full curve, poor fit]	
COc1cc(/C=N/n2cnc3scc(-c4cccs4)c3c2=O)cc(OC)c1OC	inconclusive: 2.91 µM [cytotoxic, partial curve, poor fit]	
CCc1nn(-c2ccccc2)c2c1-c1cc(OC)c(OC)cc1C1(N2)C(=O)Nc2ccccc21 (centres undefined)	inconclusive: 6.51 µM [cytotoxic, full curve, poor fit]	
COc1ccc(/C=C/C(=O)c2ccccc2)c(OC)c1	inconclusive: 25.9 µM [cytotoxic, partial curve, poor fit]	
CC(C)(C)NC(=O)C(c1ccc(-c2ccccc2)cc1)N(C[C@H]1CC[C@@H]([C@@H]2CC[C@H](CO)O2)O1)C(=O)c1ccc(-c2ccccc2)cc1 (some centres undefined)	inconclusive: 23.1 µM [cytotoxic, single point]	
O=C1CSC(=Nc2ccc(O)cc2)N1c1ccc(O)cc1	inconclusive: 23.1 µM [rising, single point]	
Cc1noc(NS(=O)(=O)c2ccc(NC(=O)c3cccc(S(=O)(=O)N(C)c4ccccc4)c3)cc2)c1C	inconclusive: 29.1 µM [rising, single point]	
CCOC(=O)Cc1csc(NC(=O)Nc2ccc(OC(F)(F)F)cc2)n1	inconclusive: 18.4 µM [cytotoxic, single point]	
O=C(Nc1nccs1)c1ccc(Cl)s1		inactive: 0%
CCN1C(=O)[C@@H]2[C@@H](c3ccc(-c4ccc(Cl)c(Cl)c4)cc3)N3CCC[C@@]3(C(=O)OC)[C@@H]2C1=O		inconclusive: -11.5%
Cc1cc2nc(-c3ccc(=O)[nH]c3)n(C)c2cc1C	inconclusive: 20.6 µM [cytotoxic, single point]	
COc1ccccc1N=Nc1ccc(O)c2ncccc12	inconclusive: 1.16 µM [cytotoxic, partial curve]	
CCN1CCN(CCCNC(=O)Cn2cc3c(n2)CCCC3)CC1		inactive: -15.9%
Cc1ccc(NC2CCCN(C(=O)c3ccc4[nH]ccc4c3)C2)cc1C (centres undefined)	inconclusive: 29.1 µM [cytotoxic, single point]	
CCn1cnc2scc(-c3ccccc3)c2c1=O		inactive: -3.79%
CC/C(=N/NC(=O)c1ccccc1)c1ccc(OCCN2CCOCC2)cc1	inconclusive: 11.6 µM [cytotoxic, partial curve]	
O=C(NC1CCC(O)CC1)c1cc(-c2ccc(Cl)cc2)nc2ccccc12 (centres undefined)		inactive: 6.3%
O=C(CNCCC1=CCCCC1)Nc1ccccc1N1CCCCCC1	active: 11.6 µM	
c1ccc(-c2ccccc2OCCCCN2CCCCC2)cc1		inactive: -12.7%
Cc1ccc2c(c1)C1CN(C)CCC1N2S(=O)(=O)c1ccc(Oc2ccc([N+](=O)[O-])cc2)cc1 (centres undefined)	inconclusive: 23.1 µM [cytotoxic, partial curve, poor fit]	
COc1cccc(NC(=O)CN(C)C(=O)CNC(=O)c2ccc3ccccc3c2)c1		inconclusive: -13.8%

SMILES	Potency	activity change, negative = cytotoxicity
COC(CN(C(=O)CCl)C(C(=O)NC1CCCCC1)c1ccccc1C)OC (centres undefined)	inconclusive: 20.6 µM [cytotoxic, single point]	
CC1CCCCN1CCCNC(=O)Cn1ncc2c3ccccc3n(Cc3ccccc3)c2c1=O (centres undefined)	inconclusive: 29.1 µM [rising, single point]	
COc1ccccc1N1CCN(Cc2nc(-c3cc(OC)c(OC)c(OC)c3)no2)CC1		inactive: 3.7%
CCOc1ccccc1-c1nc2c([nH]1)c(=O)n(C)c(=O)n2C	active: 10.3 µM	
CC1CCN(CCCn2c(SCC(=O)Nc3ccccc3Cl)nc3ccccc3c2=O)CC1	inconclusive: 5.17 µM [cytotoxic, full curve]	
CSC1=C(C#N)C(=O)NC(c2ccc(Cl)cc2)S1 (centres undefined)	inconclusive: 20.6 µM [cytotoxic, partial curve, poor fit]	
CN(C)c1cc[n+](CC(=O)Nc2cc(C(F)(F)F)ccc2Cl)cc1		inactive: 23.3%
O=C1CC(N2CCSCC2)C(=O)N1c1cccc(Cl)c1 (centres undefined)	inconclusive: 29.1 µM [rising, single point]	
CC1Cc2ccccc2N1C(=O)CSc1nnc(CNc2ccccc2)o1 (centres undefined)	active: 16.4 µM	
CCOc1ccccc1CNS(=O)(=O)c1ccc2c(c1)oc(=O)n2C		inactive: -13%
COc1ccc(C(=O)NNC(=O)c2ccccn2)cc1		inactive: 16.1%
Cc1cc(C)nc(SC2c3cccc4cccc(c34)C2NS(=O)(=O)c2ccccc2)n1 (centres undefined)	inconclusive: 16.4 µM [cytotoxic, partial curve]	
COc1ccc(C2=Nn3c(nnc3-c3ccccc3F)SC2)cc1OCC1CC1	inconclusive: 25.9 µM [cytotoxic, partial curve, poor fit]	
Cc1ccc(SCc2nc3ccccc3n2CC(=O)Nc2ccccc2)cc1	inconclusive: 14.6 µM [cytotoxic, partial curve]	
COc1ccc(-c2cccc(-c3cc(=O)oc4cc(OC)c(OC)c(OC)c34)c2)cc1	active: 23.1 µM	
CC(/C=N/N1CCN(c2ccccn2)CC1)=C\c1ccccc1	active: 20.6 µM	
C=CC[C@@H](CC(=O)N[C@@H](CO)Cc1ccccc1)C(=O)NC[C@@H](OC(=O)[C@@H](CC=C)Cc1ccc(F)cc1)c1ccccc1		inactive: 4.35%
Cc1ccc(C(=O)/C=C\C(=O)c2ccc(C)cc2)cc1		inactive: -8.16%
COc1ccccc1-c1cnc(C(O)c2cc(C)c(OC)c(C)c2)[nH]1 (centres undefined)	inconclusive: 18.4 µM [cytotoxic, partial curve]	
CCc1noc(C)c1C(=O)Oc1ccc(N(C)S(=O)(=O)c2ccccc2)cc1	inconclusive: 20.6 µM [cytotoxic, partial curve]	
O=C(c1ccco1)N1CCN(C(=O)C23CC4CC(CC(C4)C2)C3)CC1	inconclusive: 14.6 µM [cytotoxic, partial curve, poor fit]	
C=CCN(CC=C)C(=O)C(=O)c1cc(C)n(-c2ccc([N+](=O)[O-])cc2)c1C	active: 7.31 µM	

Reprinted at random: 2 compounds from above.
SMILES	Potency	activity change, negative = cytotoxicity
Cc1cc(C)nc(SC2c3cccc4cccc(c34)C2NS(=O)(=O)c2ccccc2)n1 (centres undefined)	inconclusive: 16.4 µM [cytotoxic, partial curve]	
CC1CCN(CCCn2c(SCC(=O)Nc3ccccc3Cl)nc3ccccc3c2=O)CC1	inconclusive: 5.17 µM [cytotoxic, full curve]	
